Test results: doi:10.1101/414367
No constants are given. Whether binding was seen depends on the method and setting. In cells and extracts the contact can be indirect. Some results given as binding are weak or reduced against the parent protein; the word gives no strength. Tags and fused reporters may be left off the sequences shown.

Target: T1, Cex1-HA (S. cerevisiae) (UniProt Q12453)
T1 sequence: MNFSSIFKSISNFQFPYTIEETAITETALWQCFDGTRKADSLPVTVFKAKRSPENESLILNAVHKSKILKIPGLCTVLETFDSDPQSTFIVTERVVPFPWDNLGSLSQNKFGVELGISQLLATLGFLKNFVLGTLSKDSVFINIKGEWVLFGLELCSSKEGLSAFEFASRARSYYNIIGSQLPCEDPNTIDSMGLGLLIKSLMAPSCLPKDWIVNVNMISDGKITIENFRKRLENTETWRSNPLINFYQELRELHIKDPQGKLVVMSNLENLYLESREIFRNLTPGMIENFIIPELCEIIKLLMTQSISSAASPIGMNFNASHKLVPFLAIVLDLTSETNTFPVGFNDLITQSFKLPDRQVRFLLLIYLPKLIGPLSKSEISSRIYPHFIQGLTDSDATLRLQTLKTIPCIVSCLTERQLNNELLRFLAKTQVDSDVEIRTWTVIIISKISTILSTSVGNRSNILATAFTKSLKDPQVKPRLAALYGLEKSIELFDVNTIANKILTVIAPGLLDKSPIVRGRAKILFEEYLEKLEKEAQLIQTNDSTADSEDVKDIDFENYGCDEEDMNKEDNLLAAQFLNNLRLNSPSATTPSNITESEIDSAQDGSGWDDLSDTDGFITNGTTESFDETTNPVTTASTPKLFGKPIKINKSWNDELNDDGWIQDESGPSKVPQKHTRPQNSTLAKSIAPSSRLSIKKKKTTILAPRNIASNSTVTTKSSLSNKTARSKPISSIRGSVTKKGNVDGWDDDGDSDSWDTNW
Experiment: co-IP

B1: Myc-tagged version of Sec27 (protein, UniProt P41811 1-889)
chain: MKLDIKKTFSNRSDRVKGIDFHPTEPWVLTTLYSGRVELWNYETQVEVRSIQVTETPVRAGKFIARKNWIIVGSDDFRIRVFNYNTGEKVVDFEAHPDYIRSIAVHPTKPYVLSGSDDLTVKLWNWENNWALEQTFEGHEHFVMCVAFNPKDPSTFASGCLDRTVKVWSLGQSTPNFTLTTGQERGVNYVDYYPLPDKPYMITASDDLTIKIWDYQTKSCVATLEGHMSNVSFAVFHPTLPIIISGSEDGTLKIWNSSTYKVEKTLNVGLERSWCIATHPTGRKNYIASGFDNGFTVLSLGNDEPTLSLDPVGKLVWSGGKNAAASDIFTAVIRGNEEVEQDEPLSLQTKELGSVDVFPQSLAHSPNGRFVTVVGDGEYVIYTALAWRNKAFGKCQDFVWGPDSNSYALIDETGQIKYYKNFKEVTSWSVPMHSAIDRLFSGALLGVKSDGFVYFFDWDNGTLVRRIDVNAKDVIWSDNGELVMIVNTNSNGDEASGYTLLFNKDAYLEAANNGNIDDSEGVDEAFDVLYELSESITSGKWVGDVFIFTTATNRLNYFVGGKTYNLAHYTKEMYLLGYLARDNKVYLADREVHVYGYEISLEVLEFQTLTLRGEIEEAIENVLPNVEGKDSLTKIARFLEGQEYYEEALNISPDQDQKFELALKVGQLTLARDLLTDESAEMKWRALGDASLQRFNFKLAVEAFTNAHDLESLFLLHSSFNNKEGLVTLAKDAERAGKFNLAFNAYWIAGDIQGAKDLLIKSQRFSEAAFLGSTYGLGDDAVNDIVTKWKENLILNGKNTVSERVCGAEGLPGSSSSGDAQPLIDLDSTPAPEQADENKEAEVEDSEFKESNSEAVEAEKKEEEAPQQQQSEQQPEQGEAVPEPVEEES
Question: For B1, which binding is on record?
Answer: binds
